Measured values: publication doi:10.1101/2024.04.01.586839
Results are given in words; binding and its absence hold for the method and conditions named. In cells and extracts the contact can be indirect. Some binding calls cover weakened binding; strength is not graded here. Sequences can lack the tags named with a protein.

Target: T1, HA-tagged human HHIP (hedgehog interacting protein) (human) (UniProt Q96QV1)
T1 sequence: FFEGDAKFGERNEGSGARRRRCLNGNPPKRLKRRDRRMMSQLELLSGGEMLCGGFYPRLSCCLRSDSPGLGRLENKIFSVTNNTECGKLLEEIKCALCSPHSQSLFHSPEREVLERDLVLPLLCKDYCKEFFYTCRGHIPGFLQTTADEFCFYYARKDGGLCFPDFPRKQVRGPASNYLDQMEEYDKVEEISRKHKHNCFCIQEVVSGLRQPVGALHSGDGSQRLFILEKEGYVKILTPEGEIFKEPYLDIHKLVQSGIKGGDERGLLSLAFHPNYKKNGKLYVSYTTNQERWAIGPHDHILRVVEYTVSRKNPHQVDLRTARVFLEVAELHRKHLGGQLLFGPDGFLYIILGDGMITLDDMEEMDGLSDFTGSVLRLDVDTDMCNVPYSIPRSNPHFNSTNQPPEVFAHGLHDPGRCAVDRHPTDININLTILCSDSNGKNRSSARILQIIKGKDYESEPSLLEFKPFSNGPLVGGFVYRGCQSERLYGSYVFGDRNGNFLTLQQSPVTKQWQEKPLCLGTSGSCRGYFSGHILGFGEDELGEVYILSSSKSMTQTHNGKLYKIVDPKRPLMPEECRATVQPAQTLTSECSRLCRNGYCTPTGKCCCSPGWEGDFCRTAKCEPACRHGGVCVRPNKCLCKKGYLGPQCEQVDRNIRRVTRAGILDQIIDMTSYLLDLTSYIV
Assay: co-IP

- binding: binds
Substance: TP53 (from UniProt P04637 1-393)
